Values joined by “and” are separate entries in the source; they are usually repeats but may differ in a detail not shown here. Identical values can stand only once. Hit rate of the full screen: of about 580,000 compounds, about 6,100 (1.1%) were called active. Inconclusive means that the source gave no clear call. Such entries were picked first, then a sample of the others. The call rests on the fitted dose curve; in most records, active means well fitted inhibition curve with a large enough effect; inconclusive means small, poorly fitted or top-dose-only effect, or another doubt; inactive means no such curve, though single readings can be large or run the other way. Potencies beside an inconclusive call are fits to weak or partial responses and may not hold up.
target: Polyunsaturated fatty acid lipoxygenase ALOX12 (Homo sapiens) (UniProt P18054); experiment: Primary qHTS assay for inhibitors of human arachidonate 12S-lipoxygenase (ALOX12): Round 2; details: purified 12hLO, xylenol orange hydroperoxide absorbance; activity change, negative = inhibition: at 108 µM (top of the series) unless noted
Summary of the method: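 Purified human 12hLO at 150 nM in 25 mM Hepes, 0.01% Triton X-100, pH 7.0, preincubated 15 min at room temperature with compound. Reaction started with 40 uM arachidonic acid, 30 min at room temperature. Hydroperoxide measured by Fe-xylenol orange, 573/405 nm absorbance ratio.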
On the % scale 0 is the no-effect control and ±100 the full control effect; potency means the concentration at half of the fitted maximal effect.

The chains behind the UniProt entries cited, without tags or fusion partners. Where a name states a change or a piece, a line headed by the entry shows the natural chain unless it says otherwise.
UniProt P18054: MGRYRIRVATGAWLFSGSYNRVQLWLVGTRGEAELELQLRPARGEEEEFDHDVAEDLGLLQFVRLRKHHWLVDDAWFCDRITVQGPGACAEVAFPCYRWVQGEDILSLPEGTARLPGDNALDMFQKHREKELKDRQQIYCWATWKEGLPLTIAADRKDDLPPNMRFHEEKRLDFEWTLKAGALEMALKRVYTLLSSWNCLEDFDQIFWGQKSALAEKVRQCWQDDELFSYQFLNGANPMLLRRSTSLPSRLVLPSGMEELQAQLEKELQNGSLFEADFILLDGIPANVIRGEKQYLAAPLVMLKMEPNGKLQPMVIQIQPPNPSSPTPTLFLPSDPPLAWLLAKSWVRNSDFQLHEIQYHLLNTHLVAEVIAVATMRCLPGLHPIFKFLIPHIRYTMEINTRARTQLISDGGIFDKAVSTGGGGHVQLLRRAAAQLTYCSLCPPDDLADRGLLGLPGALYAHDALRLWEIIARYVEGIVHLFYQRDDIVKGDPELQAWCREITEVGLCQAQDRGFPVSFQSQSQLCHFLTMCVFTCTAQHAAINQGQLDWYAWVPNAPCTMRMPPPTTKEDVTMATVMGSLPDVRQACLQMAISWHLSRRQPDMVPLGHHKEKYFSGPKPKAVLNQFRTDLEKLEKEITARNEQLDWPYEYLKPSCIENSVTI

Structure (SMILES)	Potency	activity change, negative = inhibition
CCN(CC)CCNC(=O)c1ccc(NC(=O)c2cccc(S(=O)(=O)N3CCc4ccccc43)c2)cc1	inconclusive: 50.1 µM [inhibitor, partial curve, poor fit]	
Cc1ccc(C2SCC(=O)N2Cc2ccccc2)cc1 (stereo not drawn)	inconclusive: 0.126 µM [inhibitor, full curve, poor fit]	
CC(C)(C)NC(=O)C1CCN(c2oc(-c3ccco3)nc2C#N)CC1		inconclusive: -33.5% [inhibitor]
CC(C)C(CC(=O)O)c1ccc(Cl)cc1 (stereo not drawn)	inactive	
Cc1[nH]c2ccccc2c1C(=O)COC(=O)C1CC(=O)N(Cc2ccco2)C1 (stereo not drawn)	inactive	
CC(Oc1cccc(Cl)c1)C(=O)Nc1cc(S(=O)(=O)N2CCOCC2)ccc1N1CCCC1 (stereo not drawn)	inconclusive: 35.5 µM [inhibitor, partial curve, poor fit]	
O=P(OC1CCCCC1)(OC1CCCCC1)C(O)c1cccnc1 (stereo not drawn)	inactive	
CC1CC(=O)C2=C(C1)Nc1nc3ccccc3n1C2c1cccnc1 (stereo not drawn)	inactive	
Cc1ccc(-c2ccsc2C(=O)N2CCN(S(=O)(=O)c3ccc(F)c(F)c3)CC2)cc1	inconclusive: 79.4 µM [inhibitor, partial curve, poor fit]	
c1ncc(-c2ccc(-c3noc([C@@H]4CCCN4Cc4ccc5c(c4)OCO5)n3)cn2)cn1	inactive	
OCCc1cc(CC2(NC3CCOCC3)COC2)no1	inactive	
CN1c2ccccc2-c2ccccc2S1(=O)=O	inconclusive: 112 µM [inhibitor, partial curve, poor fit]	
COCCN(CC(=O)Nc1cccc(C)c1C)C(=O)c1ccc2ccccc2n1	inconclusive: 126 µM [inhibitor, single point]	
Cc1nnc(SCC(=O)NCCc2ccco2)c2nn(-c3ccc(Cl)cc3)c(C)c12	active: 31.6 µM	
Cc1nc(NCc2ccc(S(N)(=O)=O)cc2)c2c(C)c(C)sc2n1	inconclusive: 141 µM [inhibitor, partial curve, poor fit]	
Cc1ccc(C(c2sc3ncnn3c2O)N2CCCCC2)cc1 (stereo not drawn)	inactive	
O=C(Nc1ccccc1)Nc1sccc1-c1nc2ccccc2s1	inactive	
COc1ccc(C2=C(O)C(=O)N(CCc3ccccc3)C2c2ccc(C(=O)O)cc2)cc1 (stereo not drawn)	active: 17.8 µM	
CC(=O)Nc1ccc(CN[C@@H]2CO[C@H](CNS(C)(=O)=O)[C@H]2O)cc1	inactive	
O=C(c1ccc(OC(F)F)cc1)n1ccccc1=NC1CCCCC1	inactive	
O=C1CC(NS(=O)(=O)c2cc(F)ccc2F)CN1c1cccc(F)c1 (stereo not drawn)	inactive	
Cc1ccc(SCc2ccc(C(=O)Nc3c(C)cccc3C(C)C)cc2)cc1	inconclusive: 44.7 µM [inhibitor, partial curve, poor fit]	
N#C/C(=N\Nc1ccccc1[N+](=O)[O-])C(=N)N1CCCCC1	inconclusive: 39.8 µM [inhibitor, partial curve, poor fit]	

Structure (SMILES)	Potency	activity change, negative = inhibition
COc1ccc(-c2nnc(SCC(=O)Nc3ccc4cn[nH]c4c3)n2-c2ccc(Cl)cc2)cc1	inactive	
OCCNCc1ccc(OCc2ccc(Cl)cc2Cl)cc1	inconclusive: 50.1 µM [inhibitor, partial curve, poor fit]	
CN(C)S(=O)(=O)c1ccc(NC(=O)CCc2ncc(-c3ccc(F)cc3F)o2)cc1	inconclusive: 89.1 µM [inhibitor, partial curve, poor fit]	
COC(=O)C1=C(C)NC(=S)N(C(C)=O)C1c1ccc(OC)c(OC)c1 (stereo not drawn)	inactive	
CC1(C(=O)NCc2ccccc2)CSCC(=O)N1C1CCN(Cc2ccccc2)CC1 (stereo not drawn)	inconclusive: 126 µM [inhibitor, single point]	
COc1cc(-c2nc3ccc(Cl)cn3c2Nc2ccc3c(c2)OCO3)cc(OC)c1O	inconclusive: 100 µM [inhibitor, partial curve, poor fit]	
Cc1ccc(C)c(SCC(=O)N(C)CC(=O)Nc2ccc(N3CCOCC3)cc2)c1	inactive	
Cn1c(SCC(=O)N2CCc3ccccc32)nnc1-c1cccc(NC(=O)c2ccccc2F)c1	active: 35.5 µM	
FC(F)Sc1ccc(NC(=S)NCCCc2ccccc2)cc1	inconclusive: 112 µM [inhibitor, single point]	
Cc1[nH]n(-c2ccccc2)c(=O)c1/C=N/NC(=O)C(C)C	inconclusive: 39.8 µM [inhibitor, partial curve, poor fit]	
CN(C)C/C=C(\c1ccc(Br)cc1)c1cccnc1	inconclusive: 35.5 µM [inhibitor, single point] and inconclusive: 22.4 µM [inhibitor, full curve, poor fit]	
Cc1cc(C)nc(NC(=O)CSc2nc3ccccc3o2)n1	inconclusive: 31.6 µM [inhibitor, partial curve, poor fit]	
COc1cc(CN(C)Cc2cc(=O)n3ccsc3n2)ccc1OC(F)F	inconclusive: 39.8 µM [inhibitor, partial curve, poor fit]	
COC(=O)c1c(NC(C)=O)c2cc(NC3CCCC(C)(C)C3)cnc2n1CC1CCCO1 (stereo not drawn)	inactive	
CC(=O)/C(=N/Nc1ccccc1[N+](=O)[O-])N1CCCc2ccccc21	inconclusive: 141 µM [inhibitor, single point]	
Cc1nc2ccccc2n1C1CC(=O)N(Cc2ccccc2)C1=O (stereo not drawn)	inactive	
Cc1oc(-c2ccccc2)cc1C(=O)Nc1cccc(C(=O)O)c1	inconclusive: 39.8 µM [inhibitor, partial curve, poor fit]	
COc1ccc(/C=C/C(=O)OCC(=O)Nc2ccc(S(N)(=O)=O)cc2)cc1OC	inactive	
CCN(CC)CCNC(=O)Cn1ncc2c([nH]c3ccccc32)c1=O	inconclusive: 44.7 µM [inhibitor, partial curve, poor fit]	
Cc1ccc(NC(=O)c2cnc3ccccc3n2)cc1F	inactive	
COc1ccc(NC(=O)c2nn(C)c(=O)c3ccccc23)cc1OC1CCCC1	inactive	
Fc1ccccc1NC(=S)NCCc1cccc(Cl)c1	inconclusive: 44.7 µM [inhibitor, partial curve, poor fit]	
CCCCN(CC)CCCNC(=O)c1cc2c(-c3ccc(OC)c(OC)c3)nn(C)c2s1	inactive	

Structure (SMILES)	Potency	activity change, negative = inhibition
CC1=CCC(/C=N/NC(N)=S)CC1 (stereo not drawn)	inconclusive: 50.1 µM [inhibitor, single point]	
COCCCN1C(=O)C(=O)/C(=C(/O)c2ccc(OC(C)C)cc2)C1c1cccnc1 (stereo not drawn)	inconclusive: 3.16 µM [inhibitor, full curve, poor fit]	
Cc1c(C(=O)O)oc2ccc3c(c12)C(O)CC(C)(C)O3 (stereo not drawn)	inconclusive: 126 µM [inhibitor, single point]	
Cc1ccc2nc3c(cc(C(N)=S)c(=N)n3CCCOC(C)C)c(=O)n2c1	inconclusive: 28.2 µM [inhibitor, partial curve, poor fit]	
COCCNC(=O)C1CCCN(S(=O)(=O)c2ccc3c(ccn3C)c2)C1 (stereo not drawn)	inactive	
Cc1ccc(C)c(OCC(O)Cn2nc(C)c3ccccc3c2=O)c1 (stereo not drawn)	inactive	
CN(CCO)C(=O)c1nc[nH]c1C(=O)N1CCN(C(=O)OC(C)(C)C)CC1	inconclusive: 10 µM [inhibitor, full curve]	
Cc1cccn2c(=O)c3cc(C#N)c(=O)n(CCCN4CCOCC4)c3nc12	inconclusive: 50.1 µM [inhibitor, partial curve, poor fit]	
CCCCCC1C(=O)C[C@@H]2CCN3C(=O)CCC[C@H]1[C@H]23 (stereo partly drawn)	inconclusive: 100 µM [inhibitor, single point]	
CCN(CC)C(=O)Oc1ccc2c(=O)c(-c3ccc(OC)cc3)c(C)oc2c1	inconclusive: 63.1 µM [inhibitor, partial curve, poor fit]	
CCOc1ccc(-c2cnc(NCc3ccc(OC)cc3OC)n2C)cc1	inconclusive: 2.82 µM [inhibitor, full curve]	
CCNC(=S)N/N=C(\C)c1ccc(Cl)s1	inconclusive: 14.1 µM [inhibitor, full curve]	
O=C1c2oc3ccc(F)cc3c(=O)c2C(c2cccc([N+](=O)[O-])c2)N1CCCN1CCOCC1 (stereo not drawn)	inconclusive: 141 µM [inhibitor, single point]	
Cc1cccc2cc(/C=C/C(=O)c3ccco3)c(Cl)nc12	inconclusive: 100 µM [inhibitor, partial curve, poor fit]	
CN(Cc1ccc(N2CCOCC2)cc1)C(=O)CCC[C@H]1NC[C@@H]2C[C@H]1CN(Cc1ccccc1)C2	inconclusive: 3.16 µM [inhibitor, partial curve, poor fit]	
CCCc1nc2c(-c3ccc(F)cc3)c(C)[nH]n2c(=O)c1Cl	inconclusive: 178 µM [inhibitor, partial curve, poor fit]	
COc1ccc(OC)c(Nc2ncnc3ccc(Br)cc23)c1	inconclusive: 100 µM [inhibitor, single point]	
CC(C)(C)N(Cc1ccccc1)C(=O)COC(=O)C1=NN(c2ccccc2)C(=O)CC1	inconclusive: 89.1 µM [inhibitor, partial curve, poor fit]	
CC(C)(C)NC(=O)C(c1ccncc1)N(Cc1ccco1)C(=O)c1ccc(-c2ccccc2)[nH]1 (stereo not drawn)	inconclusive: 44.7 µM [inhibitor, partial curve, poor fit]	
COc1ccc(NC(=O)Nc2ccc(F)c(-c3nnc(-c4ccccc4)o3)c2)c(OC)c1	inactive	
COc1ccc(Cl)cc1C(=O)N1CCC2(CC1)CC(O)CCO2 (stereo not drawn)	inactive	
CC(C)NC(=O)N(C)C[C@@H]1OCc2ccccc2-c2c(n(C)c3ccccc23)C(=O)N([C@@H](C)CO)C[C@@H]1C	inconclusive: 141 µM [inhibitor, single point]	
